Legend:
[1] = general procedure: Boc solid-phase peptide synthesis; Boc-Leu PAM polystyrene resin; dicyclohexylcarbodiimide/N-hydroxybenzotriazole; conditions: whole synthesis, by HPLC (UV absorption at 215 nm)
[2] = general procedure: Boc solid-phase peptide synthesis; Boc-Gln PAM resin; dicyclohexylcarbodiimide/N-hydroxybenzotriazole; conditions: whole synthesis

| Substance | crude yield [1] | final purity (method not given) [2] |
| --- | --- | --- |
| [D-Phe^45,Arg^47,ψ(COCH2)(CH2)3CO^47-(NHCH2CH=CHCH2CO), Pro^58, Leu^61]hirudin^45-61 | greater than 60% | – |
| [D-Phe^45,Arg^47,ψ(COCH2)CH2CH2CO^47]hirudin^45-65 | – | 98% purity or higher |
